Results are given in words; binding and its absence hold for the method and conditions named. In cells and extracts the contact can be indirect. These calls come from enrichment with a bait or labelling near it, and not all partners need be listed.
Target: Heterochromatin binding protein HP1β (endogenous, mESCs and EpiLCs) (mouse (endogenous in E14 mESCs)) (UniProt P83917)
Test: affinity purification with mass spectrometry; ChIP-MS: formaldehyde-crosslinked, MNase-digested chromatin of wt against HP1β−/− E14 mESCs (naive, 0 h) and EpiLCs (48 h ActivinA/FGF); anti-HP1β antibody (Abcam), protein A/G beads; washes with 140 mM and 500 mM NaCl, 1% Triton X-100

The chains behind the UniProt entries cited, without tags or fusion partners.
UniProt P83917: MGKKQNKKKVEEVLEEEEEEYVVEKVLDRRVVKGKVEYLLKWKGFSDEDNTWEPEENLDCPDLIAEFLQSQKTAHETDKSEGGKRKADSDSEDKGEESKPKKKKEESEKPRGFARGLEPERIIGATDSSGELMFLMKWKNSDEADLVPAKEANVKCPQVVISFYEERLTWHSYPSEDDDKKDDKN
UniProt Q61686: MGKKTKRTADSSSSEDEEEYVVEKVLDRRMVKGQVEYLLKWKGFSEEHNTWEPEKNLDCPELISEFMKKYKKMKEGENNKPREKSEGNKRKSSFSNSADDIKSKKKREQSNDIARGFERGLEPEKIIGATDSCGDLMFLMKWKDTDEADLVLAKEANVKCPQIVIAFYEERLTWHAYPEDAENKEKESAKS
UniProt Q6Q783: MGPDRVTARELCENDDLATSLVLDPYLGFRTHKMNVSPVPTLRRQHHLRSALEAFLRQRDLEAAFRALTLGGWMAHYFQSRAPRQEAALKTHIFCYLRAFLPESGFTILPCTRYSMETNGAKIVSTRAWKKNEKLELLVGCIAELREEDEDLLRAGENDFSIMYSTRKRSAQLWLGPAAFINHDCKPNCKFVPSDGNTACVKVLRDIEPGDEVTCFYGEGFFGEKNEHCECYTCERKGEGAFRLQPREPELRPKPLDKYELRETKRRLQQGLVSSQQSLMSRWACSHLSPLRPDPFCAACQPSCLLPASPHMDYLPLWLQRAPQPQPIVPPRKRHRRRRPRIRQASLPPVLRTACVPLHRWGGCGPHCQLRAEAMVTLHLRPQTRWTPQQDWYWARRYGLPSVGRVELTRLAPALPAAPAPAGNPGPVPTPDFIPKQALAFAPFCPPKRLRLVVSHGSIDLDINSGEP

Row | binding | Substance
1 | binds | HP1α (endogenous, mESCs) (from UniProt Q61686 1-191)
2 | binds | SUV420H2 (endogenous, mESCs/EpiLCs) (from UniProt Q6Q783 1-468)
